Test results: patent publication US20170334966A1
Results are given in words; binding and its absence hold for the method and conditions named. Binding seen in cells or lysates may run through a third protein. Some binding calls cover weakened binding; strength is not graded here.

Protein sequences, listed by entry. Tags and fused reporters are not part of them. Residues count along the entry.
UniProt P29317, residues 24-976: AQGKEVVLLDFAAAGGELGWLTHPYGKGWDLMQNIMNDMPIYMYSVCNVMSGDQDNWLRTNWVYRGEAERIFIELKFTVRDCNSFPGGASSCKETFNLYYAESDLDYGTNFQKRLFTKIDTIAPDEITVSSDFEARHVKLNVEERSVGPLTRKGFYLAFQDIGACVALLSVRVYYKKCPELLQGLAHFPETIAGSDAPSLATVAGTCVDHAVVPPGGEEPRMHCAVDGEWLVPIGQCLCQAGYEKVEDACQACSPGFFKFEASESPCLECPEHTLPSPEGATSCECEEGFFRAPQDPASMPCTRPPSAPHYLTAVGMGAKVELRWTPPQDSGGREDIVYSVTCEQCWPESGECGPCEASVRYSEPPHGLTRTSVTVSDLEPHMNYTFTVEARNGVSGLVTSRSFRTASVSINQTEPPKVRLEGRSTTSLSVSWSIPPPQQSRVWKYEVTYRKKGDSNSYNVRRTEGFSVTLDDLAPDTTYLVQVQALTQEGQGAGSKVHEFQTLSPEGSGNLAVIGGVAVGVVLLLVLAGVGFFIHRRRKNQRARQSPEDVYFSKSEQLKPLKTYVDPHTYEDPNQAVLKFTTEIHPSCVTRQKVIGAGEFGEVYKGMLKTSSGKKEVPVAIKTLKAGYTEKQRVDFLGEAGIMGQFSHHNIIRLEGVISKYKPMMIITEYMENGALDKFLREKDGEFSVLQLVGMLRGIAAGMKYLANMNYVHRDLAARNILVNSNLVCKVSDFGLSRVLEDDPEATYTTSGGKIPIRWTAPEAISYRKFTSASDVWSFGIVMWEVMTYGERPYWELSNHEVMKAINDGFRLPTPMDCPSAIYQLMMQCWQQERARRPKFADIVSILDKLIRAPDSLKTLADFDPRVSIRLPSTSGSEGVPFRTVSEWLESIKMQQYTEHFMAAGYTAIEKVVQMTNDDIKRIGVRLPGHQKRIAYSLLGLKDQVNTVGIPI
UniProt Q61772, residues 31-525: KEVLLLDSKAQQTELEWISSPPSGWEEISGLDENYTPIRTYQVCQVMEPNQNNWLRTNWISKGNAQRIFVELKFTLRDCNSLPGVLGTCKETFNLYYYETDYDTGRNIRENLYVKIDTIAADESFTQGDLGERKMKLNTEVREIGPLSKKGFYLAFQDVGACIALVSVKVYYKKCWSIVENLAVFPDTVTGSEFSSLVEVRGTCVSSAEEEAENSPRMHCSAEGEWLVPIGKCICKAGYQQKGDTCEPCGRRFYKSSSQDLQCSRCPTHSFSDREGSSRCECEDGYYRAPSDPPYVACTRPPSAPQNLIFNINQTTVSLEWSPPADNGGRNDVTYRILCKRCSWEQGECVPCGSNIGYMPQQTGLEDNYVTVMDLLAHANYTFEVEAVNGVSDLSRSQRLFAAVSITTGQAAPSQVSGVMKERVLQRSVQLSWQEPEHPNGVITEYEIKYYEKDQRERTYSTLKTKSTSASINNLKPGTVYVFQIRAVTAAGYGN

Biological target: EphA2 receptor (human) (UniProt P29317)
Experiment: co-immunoprecipitation with anti-EphA7 antibody from lysates of Raji and DoHH2 cells treated with EphA7^Fc, blot probed for EphA2

binding: binds
Substance: immunoglobulin Fc fragment-tagged EphA7^ECD (EphA7^Fc) (from UniProt Q61772 31-525) (Fc fusion)
